Reference: publication PMC12483565, “CBFβ-SMMHC–driven leukemogenesis requires enhanced RUNX1-DNA binding affinity in mice”
The exact form of at least one protein or probe is not confirmed.

Assays:
[1] = test system: RUNX1 RHD + CBFβ-SMMHC-ΔHABD; assay: BLI; conditions: with CBFβ-SMMHC-ΔHABD, affinity significantly enhanced, Kd only in figure; BLI: 20 mM Tris-HCl pH 8.0, 150 mM KCl, 1 mM EDTA, 1 mM DTT, 0.02% Tween-20, with 800 nM CBFβ or 400 nM CBFβ-SMMHC/mutant, preincubated 37 °C 30 min; recombinant protein; protein details: His (pET28a),His (pET30a); label: biotin
RUNX1 RHD + CBFβ-SMMHC = assay: BLI; conditions: 400 nM CBFβ-SMMHC, affinity significantly enhanced, Kd only in figure; BLI: 20 mM Tris-HCl pH 8.0, 150 mM KCl, 1 mM EDTA, 1 mM DTT, 0.02% Tween-20, with 800 nM CBFβ or 400 nM CBFβ-SMMHC/mutant, preincubated 37 °C 30 min; recombinant protein; protein details: His (pET28a),His (pET30a); label: biotin

Question: Does “AGTTGCGGTTG (double strand) [RUNX1 target DNA oligonucleotide (BLI)]” bind [1]?
Answer: binds

Question: Does “AGTTGCGGTTG (double strand) [RUNX1 target DNA oligonucleotide (BLI)]” bind (RUNX1 RHD + CBFβ-SMMHC)?
Answer: binds
